# This is one part of the list. The main result of the screen is listed elsewhere. These columns were measured beside it and carry no call. The list favours compounds with an active or inconclusive main result. Words in brackets tell the shape of the fitted curve; partial curves, single points and poor fits give uncertain potencies.
# Assay: qHTS Assay for Lipid Storage Modulators in Drosophila S3 Cells;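 for cell number change: cells counted by Cell Tracker Red CMTPX staining in the red channel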
# Settings: BODIPY lipid droplet fluorescence, 18-24 h; for cell number change: measured here: cell count max response, cells fed with added oleic acid
# Outline: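 Laser-scanning cytometry quantifies lipid droplet accumulation (500–530 nm total intensity; droplet/cell object ratio) in oleic acid-fed (400 uM added) Drosophila S3 cells treated with a concentration series. 20 uM Triacsin C defined 100% inhibition.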
# [1] = measured here: cell number channel AC50, cells fed with added oleic acid
# [2] = measured here: lipid fluorescence (Fed channel) AC50, cells fed with added oleic acid
SMILES,cell number change [%],AC50 [1],AC50 [2]
COc1ccc(Br)cc1/C=c1\sc2nc(-c3ccco3)nn2c1=O,-58.7,"0.92 µM [falling, partial curve]","1.16 µM [falling, partial curve]"
O=[N+]([O-])c1ccc(N2CCN(S(=O)(=O)c3ccccc3)CC2)cc1NCCN1CCOCC1,,"1.64 µM [rising, partial curve]","0.326 µM [rising, full curve]"
COc1cccc2cc(CC(=O)c3cc(C)ccc3C)c(=O)oc12,13.5,,"8.2 µM [rising, partial curve]"
CCC[C@@H]1Cc2ccccc2N1C(C)=O,20.2,"1.16 µM [falling, single point]",
Cc1cc(NC(=O)CSc2nnnn2-c2ccc(C)c(Cl)c2)no1,12.7,"7.31 µM [rising, single point]","29.1 µM [rising, single point]"
Cc1cc(C)c(S(=O)(=O)N2CCOC2CNC(=O)C(=O)NCCN2CCOCC2)c(C)c1 (centres undefined),-19.4,,
COc1ccccc1N1CCN(CC(=O)c2c(C)[nH]c3cc(C)ccc23)CC1,,,"0.092 µM [rising, full curve, poor fit]"
C=CCn1cc(/C=N/N2C(=O)C3C4C=CC(C4)C3C2=O)c2ccccc21 (centres undefined),-18.4,,"32.6 µM [falling, single point]"
Cc1ccc(CN2C(=O)C(C)Oc3ccccc32)cc1 (centres undefined),4.03,,
COc1ccc(O)c(C2(O)C(=O)c3ccccc3C2=O)c1,-22,"0.184 µM [falling, full curve, poor fit]","0.164 µM [falling, full curve, poor fit]"
O=C(c1ccco1)N1CCN(S(=O)(=O)c2ccccc2[N+](=O)[O-])CC1,33.9,,"0.146 µM [rising, single point]"
Cn1cccc1CC(=O)N/N=C/c1ccc(C(C)(C)C)cc1,-11.2,,"29.1 µM [falling, single point]"
COc1cccc(C(=O)NCCS(=O)(=O)NCc2ccc3c(c2)OCO3)c1,23.2,,"20.6 µM [rising, partial curve]"
O=c1oc2cc(O[C@@H]3OC[C@@H](O)[C@H](O)[C@H]3O)ccc2c2ccccc12,13,,"0.103 µM [rising, full curve, poor fit]"
O=C(CSc1nccn1Cc1ccc(F)cc1)Nc1ccc(F)cc1F,38.8,"23.1 µM [rising, single point]",
Cc1noc(C)c1C(=O)OCC(=O)Nc1ccccc1SCC#N,-0.903,"3.26 µM [rising, partial curve]",
O=C(CCCN1C(=O)C(c2ccccc2)Oc2cccnc21)NCc1ccccc1Cl (centres undefined),-40.7,"29.1 µM [falling, single point]","2.06 µM [falling, partial curve]"
N#Cc1ccc(NC(=O)c2sc3cc(C(F)(F)F)cnc3c2-c2cccs2)cc1,7.14,,"29.1 µM [rising, single point]"
Cc1ccc(C(=O)N2CCN(S(=O)(=O)c3ccc(C(C)C)cc3)CC2)s1,186,"18.4 µM [rising, single point]",

SMILES,cell number change [%],AC50 [1],AC50 [2]
O=C(N/N=C/c1ccccc1)c1n[nH]c2c1CCCC2,42.7,"1.84 µM [rising, full curve, poor fit]","3.66 µM [rising, full curve]"
COc1ccc(C2C(C(=O)Nc3cccnc3)=C(C)Nc3nc(-c4cccs4)nn32)cc1OC (centres undefined),36.9,"8.2 µM [rising, partial curve, poor fit]",
O=S1(=O)N=C(SCCO)c2ccccc21,2.67,,"0.00517 µM [falling, full curve, poor fit]"
CCOC(=O)N/N=C\c1ccc([N+](=O)[O-])o1,-21.3,,"13 µM [falling, partial curve, poor fit]"
CCCOc1ccc(N2C(=O)C3C(C(C)C)NC4(C(=O)c5ccccc5C4=O)C3C2=O)cc1 (centres undefined),69.6,,
CCCC(C)NC(=O)COC(=O)c1ccc2c(c1)C(=O)N(Cc1ccco1)C2=O (centres undefined),2.56,,"7.31 µM [falling, partial curve, poor fit]"
CC1Cc2nc(SCC(=O)NCc3ccco3)n(-c3ccccc3)c(=O)c2S1 (centres undefined),2.03,,
O=C(O)c1ccc(NC(=S)NC2CCCCC2)cc1,17,,"2.31 µM [rising, single point]"
CCOc1ccc2[nH]c(=O)c(CN(Cc3cccnc3)C(=O)Nc3ccccc3OC)cc2c1,13.7,,"0.411 µM [rising, full curve]"
Cc1cc(C(=O)N2CCCc3ccccc32)no1,-9.96,"0.731 µM [falling, full curve]","6.51 µM [falling, single point]"
CC(C)C[C@H]1CN=C(Nc2ccccc2)N1CCC1CCCC1,14.7,"0.082 µM [rising, full curve, poor fit]","6.51 µM [rising, partial curve, poor fit]"
CN(Cc1ccccc1)c1nc2c(c(=O)[nH]c(=O)n2C)n1Cc1ccccc1F,-29.4,,"6.51 µM [rising, single point]"
CN1C(=O)S/C(=C/c2cccn2-c2cccc(C(=O)O)c2)C1=O,40.3,,
Nc1nc(O)c(Sc2ccccc2[N+](=O)[O-])c(=O)[nH]1,36.2,"5.8 µM [rising, full curve, poor fit]",
N=c1c(S(=O)(=O)c2ccc(Cl)cc2)cc2c(=O)n3ccccc3nc2n1CC1CCCO1 (centres undefined),-9.2,"6.51 µM [falling, partial curve]",
Cc1ccc(C(=O)N/C(=C/c2ccc(-c3ccc(Br)cc3)o2)C(=O)NC2CCS(=O)(=O)C2)cc1 (centres undefined),-33.5,"5.17 µM [falling, single point]",
NC(=O)c1ccccc1OCC(=O)N1CCc2ccccc2C1,-21,,
CC(C)NC(=O)c1onc(CSc2ccc(F)cc2)c1C(=O)NC(C)C,23.6,,"25.9 µM [rising, partial curve]"

# Part of the list above in order of number of heavy atoms, smallest number first:
SMILES,cell number change [%],AC50 [1],AC50 [2]
Cc1cc(NC(=O)CSc2nnnn2-c2ccc(C)c(Cl)c2)no1,12.7,"7.31 µM [rising, single point]","29.1 µM [rising, single point]"
CC1Cc2nc(SCC(=O)NCc3ccco3)n(-c3ccccc3)c(=O)c2S1 (centres undefined),2.03,,
N#Cc1ccc(NC(=O)c2sc3cc(C(F)(F)F)cnc3c2-c2cccs2)cc1,7.14,,"29.1 µM [rising, single point]"

# — PubChem BioAssay AID2685 (National Center for Advancing Translational Sciences (NCATS), 2010)
